Reference: PubChem BioAssay AID1159578 (Peter MacCallum Cancer Centre, 2015)

Test: 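Knock-downs that alter how fast lymphatic endothelial cells migrate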 (primary screen)
System: human lymphatic endothelial cells
Reagent: siRNA pool against human genes, 40 nM
Timing: 48 h after transfection
Read-out: 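Cells stained with dye and imaged after a scratch; covered wound area and nuclei counted, duplicates averaged, migration set against mock wells and turned into a robust z-score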
Reading the numbers: migration robust z-score: higher = faster migration into the scratch; migration relative to mock: higher = more scratch area covered than mock; nuclei per well: higher = more cells in the well
Hit rule: 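Migration changed when robust z exceeds 2 or falls below -2 and mean nuclei number is at least 3300; otherwise not called changed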
Calls: active = migration changed; inactive = no migration change, or too few cells
The deposit covers about 18,000 reagents; shown is a random part of them. In the full data, about 1,030 (5.7%) are marked active. 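Inactive calls also include pools with fewer than 3300 nuclei, whose migration was not assessed.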 The raw values are shown without normalisation.

| gene | migration robust z-score | migration class with cell-count check | migration relative to mock | nuclei per well, duplicate mean | outcome |
| --- | --- | --- | --- | --- | --- |
| SNTG2 (syntrophin gamma 2) | 0.29 | migration z between -2 and 2; enough cells | 0.97 | 7127 | inactive |
| SLC25A46 | 0.42 | migration z between -2 and 2; enough cells | 1 | 6608 | inactive |
| TRAF4 (TNF receptor associated factor 4) | 1.45 | migration z between -2 and 2; enough cells | 1.08 | 5396 | inactive |
| RSPH3 (radial spoke head 3) | -0.75 | migration z between -2 and 2; enough cells | 0.69 | 6302 | inactive |
| LOC644006 (ring finger protein 4 pseudogene) | -1.77 | migration z between -2 and 2; enough cells | 0.46 | 5500 | inactive |
| STAM2 (signal transducing adaptor molecule 2) | 1.15 | migration z between -2 and 2; enough cells | 1.18 | 6344 | inactive |
| GLOD5 (glyoxalase domain containing 5) | 0.44 | migration z between -2 and 2; enough cells | 1 | 6398 | inactive |
| TLE4 (TLE family member 4, transcriptional corepressor) | 0.29 | migration z between -2 and 2; enough cells | 0.86 | 4728 | inactive |
| SRARP (steroid receptor associated and regulated protein) | 0.95 | migration z between -2 and 2; enough cells | 1.12 | 6276 | inactive |
| EIF3E (eukaryotic translation initiation factor 3 subunit E) | -0.94 | migration z between -2 and 2; enough cells | 0.62 | 5640 | inactive |
| NAA60 (N-alpha-acetyltransferase 60, NatF catalytic subunit) | -1.09 | migration z between -2 and 2; enough cells | 0.6 | 4218 | inactive |
| PGLYRP1 (peptidoglycan recognition protein 1) | -0.7 | migration z between -2 and 2; enough cells | 0.67 | 5780 | inactive |
| SLC2A8 | 1.19 | migration z between -2 and 2; enough cells | 1.03 | 5598 | inactive |
| VWA2 (von Willebrand factor A domain containing 2) | -1.49 | migration z between -2 and 2; enough cells | 0.5 | 5376 | inactive |
| TSPAN4 (tetraspanin 4) | -0.7 | migration z between -2 and 2; enough cells | 0.7 | 5265 | inactive |
| TXLNA (taxilin alpha) | -0.94 | migration z between -2 and 2; enough cells | 0.64 | 5439 | inactive |
| NBPF9 (NBPF member 9) | -0.07 | migration z between -2 and 2; enough cells | 0.87 | 5406 | inactive |
| SPATC1L (spermatogenesis and centriole associated 1 like) | -1.02 | under 3300 nuclei; migration not judged | 0.62 | 2912 | inactive |
| NFATC1 (nuclear factor of activated T cells 1) | 0.17 | migration z between -2 and 2; enough cells | 0.93 | 6804 | inactive |
| ZC3H18-DT (ZC3H18 divergent transcript) | 0.48 | migration z between -2 and 2; enough cells | 1.01 | 4859 | inactive |
| TMPRSS5 (transmembrane serine protease 5) | 0.88 | migration z between -2 and 2; enough cells | 0.97 | 5269 | inactive |
| SERTAD2 (SERTA domain containing 2) | -0.7 | migration z between -2 and 2; enough cells | 0.67 | 5038 | inactive |
| COPG2 (coat protein complex I subunit gamma 2) | -0.07 | migration z between -2 and 2; enough cells | 0.86 | 5730 | inactive |
| DGKK (diacylglycerol kinase kappa) | -1.58 | migration z between -2 and 2; enough cells | 0.5 | 4286 | inactive |
| TIA1 (TIA1 cytotoxic granule associated RNA binding protein) | 0.74 | migration z between -2 and 2; enough cells | 1.08 | 6046 | inactive |
| TYMP (thymidine phosphorylase) | -1.82 | migration z between -2 and 2; enough cells | 0.46 | 5832 | inactive |
| SNX18 (sorting nexin 18) | -0.59 | migration z between -2 and 2; enough cells | 0.74 | 4843 | inactive |
| SART1 | -0.3 | migration z between -2 and 2; enough cells | 0.81 | 6358 | inactive |
| PLA2G4E (phospholipase A2 group IVE) | -1.58 | migration z between -2 and 2; enough cells | 0.5 | 5149 | inactive |
| RUNDC1 (RUN domain containing 1) | 0.62 | migration z between -2 and 2; enough cells | 0.92 | 5397 | inactive |
| FAAH2 (fatty acid amide hydrolase 2) | 0.99 | migration z between -2 and 2; enough cells | 1 | 5388 | inactive |
| MCHR2 (melanin concentrating hormone receptor 2) | -0.18 | migration z between -2 and 2; enough cells | 0.77 | 5118 | inactive |
| PLEKHG6 (pleckstrin homology and RhoGEF domain containing G6) | 1.06 | migration z between -2 and 2; enough cells | 1.17 | 6246 | inactive |
| LAMC2 (laminin subunit gamma 2) | -2.59 | under 3300 nuclei; migration not judged | 0.22 | 2902 | inactive |
| ERV3-1 (endogenous retrovirus group 3 member 1, envelope) | 2.21 | migration z above 2; enough cells | 1.46 | 5999 | active |
| LZTFL1 (leucine zipper transcription factor like 1) | 1.14 | migration z between -2 and 2; enough cells | 1.18 | 5807 | inactive |
| DOCK8-AS1 (DOCK8 antisense RNA 1) | 1.06 | migration z between -2 and 2; enough cells | 1.16 | 7073 | inactive |
| DEFA3 (defensin alpha 3) | -4.23 | migration z below -2; enough cells | -0.21 | 5398 | active |
| RNF19B (ring finger protein 19B) | -1.06 | migration z between -2 and 2; enough cells | 0.6 | 5632 | inactive |
| PRAMEF4 (PRAME family member 4) | 0.98 | migration z between -2 and 2; enough cells | 1.14 | 4763 | inactive |
| GYS1 (glycogen synthase 1) | 1.94 | migration z between -2 and 2; enough cells | 1.18 | 5902 | inactive |
| EGLN3 (egl-9 family hypoxia inducible factor 3) | -1.98 | migration z between -2 and 2; enough cells | 0.42 | 3413 | inactive |
| IRAK1 (interleukin 1 receptor associated kinase 1) | -0.05 | migration z between -2 and 2; enough cells | 0.8 | 6502 | inactive |
| MRPS17 (mitochondrial ribosomal protein S17) | -0.32 | migration z between -2 and 2; enough cells | 0.8 | 5676 | inactive |
| DR1 (down-regulator of transcription 1) | -0.28 | migration z between -2 and 2; enough cells | 0.75 | 7461 | inactive |
| TYW5 (tRNA-yW synthesizing protein 5) | 1.5 | migration z between -2 and 2; enough cells | 1.28 | 6436 | inactive |
| SLC4A10 | 0.75 | migration z between -2 and 2; enough cells | 0.95 | 5868 | inactive |
| ADCK2 (aarF domain containing kinase 2) | -2.12 | migration z below -2; enough cells | 0.4 | 4977 | active |
| ANO5 (anoctamin 5) | 0.36 | migration z between -2 and 2; enough cells | 0.98 | 6106 | inactive |
| EDN3 (endothelin 3) | 0.76 | migration z between -2 and 2; enough cells | 1.08 | 6615 | inactive |
| MYLK (myosin light chain kinase) | 0.24 | migration z between -2 and 2; enough cells | 0.85 | 4437 | inactive |
| EMC1 (ER membrane protein complex subunit 1) | 0.57 | migration z between -2 and 2; enough cells | 1.04 | 5538 | inactive |
| SUCO (SUN domain containing ossification factor) | -0.52 | migration z between -2 and 2; enough cells | 0.75 | 4823 | inactive |
| KCNH7 (potassium voltage-gated channel subfamily H member 7) | -0.94 | migration z between -2 and 2; enough cells | 0.62 | 6548 | inactive |
| ARHGAP6 (Rho GTPase activating protein 6) | -0.62 | migration z between -2 and 2; enough cells | 0.72 | 6058 | inactive |
| ABTB2 (ankyrin repeat and BTB domain containing 2) | -0.78 | migration z between -2 and 2; enough cells | 0.68 | 5607 | inactive |
| SUPT4H1 (SPT4 homolog, DSIF elongation factor subunit) | -2.59 | migration z below -2; enough cells | 0.3 | 3445 | active |
